Experiment [1] has as its target TTR-FLAG overexpressed in AML12 cells (not stated (human or mouse cDNA cloned)) (UniProt P07309). Kind of experiment: co-IP.
In experiment [2] the target is TTR-FLAG (mouse transthyretin labeled with FLAG) (mouse) (UniProt P07309). Kind of experiment: co-IP.

By UniProt entry, the sequences of proteins in these tests, tags left out.
UniProt O55143: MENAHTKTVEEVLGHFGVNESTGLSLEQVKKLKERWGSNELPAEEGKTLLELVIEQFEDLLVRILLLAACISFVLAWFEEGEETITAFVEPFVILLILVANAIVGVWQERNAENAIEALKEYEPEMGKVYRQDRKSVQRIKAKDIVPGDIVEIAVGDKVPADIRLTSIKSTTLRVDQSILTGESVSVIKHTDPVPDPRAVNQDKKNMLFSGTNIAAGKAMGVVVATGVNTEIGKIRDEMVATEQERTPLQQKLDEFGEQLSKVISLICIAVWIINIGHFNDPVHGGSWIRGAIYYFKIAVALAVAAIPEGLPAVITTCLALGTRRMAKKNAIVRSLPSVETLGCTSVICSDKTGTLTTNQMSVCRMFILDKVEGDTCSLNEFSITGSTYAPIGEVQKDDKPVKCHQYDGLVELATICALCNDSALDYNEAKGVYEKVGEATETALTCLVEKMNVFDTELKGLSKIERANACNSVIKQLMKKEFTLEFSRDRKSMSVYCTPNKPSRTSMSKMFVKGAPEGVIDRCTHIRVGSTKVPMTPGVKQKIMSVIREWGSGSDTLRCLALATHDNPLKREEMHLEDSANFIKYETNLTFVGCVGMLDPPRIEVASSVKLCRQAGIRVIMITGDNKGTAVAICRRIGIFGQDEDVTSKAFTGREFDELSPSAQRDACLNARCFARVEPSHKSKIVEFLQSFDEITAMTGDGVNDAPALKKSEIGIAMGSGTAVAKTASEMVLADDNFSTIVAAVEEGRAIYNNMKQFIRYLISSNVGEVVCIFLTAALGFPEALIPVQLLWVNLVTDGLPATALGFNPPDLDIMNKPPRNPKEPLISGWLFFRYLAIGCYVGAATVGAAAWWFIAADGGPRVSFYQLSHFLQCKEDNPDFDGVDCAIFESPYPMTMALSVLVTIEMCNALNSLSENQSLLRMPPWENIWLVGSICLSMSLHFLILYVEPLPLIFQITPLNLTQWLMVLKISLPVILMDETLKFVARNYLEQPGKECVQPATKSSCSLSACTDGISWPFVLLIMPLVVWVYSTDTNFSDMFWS

No constants are given. Whether binding was seen depends on the method and setting. Binding seen in cells or lysates may run through a third protein. Some entries that bind do so weakly or less than the wild type.

On to “endogenous SERCA2 protein (AML12 cells) (from UniProt O55143 1-1044)”, for which the binding result in experiment [1] is “binds”.
With “SERCA2-MYC (mouse sarcoplasmic/endoplasmic reticulum calcium ATPase 2 labeled with MYC) (from UniProt O55143 1-1044)”, the binding result in experiment [2] is listed as “binds”.

The values above are taken from article doi:10.1101/2025.10.15.25338095.
